The text below walks through data of publication PMC8580317.

For one test, the target named is T1, Nluc-FZD6-WT (human) (UniProt O60353).
T1 sequence: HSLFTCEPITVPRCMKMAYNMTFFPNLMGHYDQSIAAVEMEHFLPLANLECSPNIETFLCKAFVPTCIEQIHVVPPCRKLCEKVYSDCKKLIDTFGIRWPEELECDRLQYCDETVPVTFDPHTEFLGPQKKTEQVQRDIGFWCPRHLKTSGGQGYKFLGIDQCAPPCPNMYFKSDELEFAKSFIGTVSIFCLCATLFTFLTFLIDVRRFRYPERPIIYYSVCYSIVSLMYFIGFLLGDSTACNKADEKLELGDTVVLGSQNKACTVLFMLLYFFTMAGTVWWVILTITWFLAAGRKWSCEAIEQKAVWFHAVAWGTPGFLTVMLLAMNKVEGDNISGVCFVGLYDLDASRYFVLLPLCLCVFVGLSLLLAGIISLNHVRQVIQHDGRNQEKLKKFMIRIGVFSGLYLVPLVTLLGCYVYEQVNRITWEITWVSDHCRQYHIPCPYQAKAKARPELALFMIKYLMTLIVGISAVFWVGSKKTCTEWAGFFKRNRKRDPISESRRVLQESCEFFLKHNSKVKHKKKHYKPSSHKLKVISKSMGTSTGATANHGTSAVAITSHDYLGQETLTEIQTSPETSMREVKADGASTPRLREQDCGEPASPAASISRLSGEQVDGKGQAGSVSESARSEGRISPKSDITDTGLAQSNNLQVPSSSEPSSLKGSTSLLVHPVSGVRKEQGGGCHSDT
Description: FRET or BRET; intermolecular BRET in living HEK293T cells cotransfected with an Nluc-tagged FZD WT (donor) and an Nluc-lacking FZD amber mutant labelled with Tet-Cy3 (acceptor); BRET recorded before and after WNT. On the technique in general: In BRET a luciferase serves as donor, and the signal depends on an acceptor being close.

Test [1] concerns the target Nluc-FZD6-K466K-Cy3 sensor (human) (UniProt O60353). Description: FRET or BRET; basal BRET ratio of the Nluc- and Cy3-bearing FZD6 sensor in living HEK293T cells, native sensor against the D365A/R368A/Y369A dimer mutant; intra- and intermolecular BRET not separated.

Results are given in words; binding and its absence hold for the method and conditions named. In cells and extracts the contact can be indirect. Some entries that bind do so weakly or less than the wild type. Sequences can lack the tags named with a protein.

B1: Nluc-lacking FZD6-K466K-Cy3 (dimer control construct) (receptor, UniProt O60353 19-706)
chain: HSLFTCEPITVPRCMKMAYNMTFFPNLMGHYDQSIAAVEMEHFLPLANLECSPNIETFLCKAFVPTCIEQIHVVPPCRKLCEKVYSDCKKLIDTFGIRWPEELECDRLQYCDETVPVTFDPHTEFLGPQKKTEQVQRDIGFWCPRHLKTSGGQGYKFLGIDQCAPPCPNMYFKSDELEFAKSFIGTVSIFCLCATLFTFLTFLIDVRRFRYPERPIIYYSVCYSIVSLMYFIGFLLGDSTACNKADEKLELGDTVVLGSQNKACTVLFMLLYFFTMAGTVWWVILTITWFLAAGRKWSCEAIEQKAVWFHAVAWGTPGFLTVMLLAMNKVEGDNISGVCFVGLYDLDASRYFVLLPLCLCVFVGLSLLLAGIISLNHVRQVIQHDGRNQEKLKKFMIRIGVFSGLYLVPLVTLLGCYVYEQVNRITWEITWVSDHCRQYHIPCPYQAKAKARPELALFMIKYLMTLIVGISAVFWVGSKKTCTEWAGFFKRNRKRDPISESRRVLQESCEFFLKHNSKVKHKKKHYKPSSHKLKVISKSMGTSTGATANHGTSAVAITSHDYLGQETLTEIQTSPETSMREVKADGASTPRLREQDCGEPASPAASISRLSGEQVDGKGQAGSVSESARSEGRISPKSDITDTGLAQSNNLQVPSSSEPSSLKGSTSLLVHPVSGVRKEQGGGCHSDT
modifications: trans-cyclooct-2-ene-L-lysine (TCO*K) at 466, labelled with Tet-Cy3
For the molecule B1, the binding result in the test with Nluc-FZD6-WT (human) is “binds”.

B2: Nluc-FZD6-K466K-Cy3 sensor (receptor, UniProt O60353 19-706)
chain: HSLFTCEPITVPRCMKMAYNMTFFPNLMGHYDQSIAAVEMEHFLPLANLECSPNIETFLCKAFVPTCIEQIHVVPPCRKLCEKVYSDCKKLIDTFGIRWPEELECDRLQYCDETVPVTFDPHTEFLGPQKKTEQVQRDIGFWCPRHLKTSGGQGYKFLGIDQCAPPCPNMYFKSDELEFAKSFIGTVSIFCLCATLFTFLTFLIDVRRFRYPERPIIYYSVCYSIVSLMYFIGFLLGDSTACNKADEKLELGDTVVLGSQNKACTVLFMLLYFFTMAGTVWWVILTITWFLAAGRKWSCEAIEQKAVWFHAVAWGTPGFLTVMLLAMNKVEGDNISGVCFVGLYDLDASRYFVLLPLCLCVFVGLSLLLAGIISLNHVRQVIQHDGRNQEKLKKFMIRIGVFSGLYLVPLVTLLGCYVYEQVNRITWEITWVSDHCRQYHIPCPYQAKAKARPELALFMIKYLMTLIVGISAVFWVGSKKTCTEWAGFFKRNRKRDPISESRRVLQESCEFFLKHNSKVKHKKKHYKPSSHKLKVISKSMGTSTGATANHGTSAVAITSHDYLGQETLTEIQTSPETSMREVKADGASTPRLREQDCGEPASPAASISRLSGEQVDGKGQAGSVSESARSEGRISPKSDITDTGLAQSNNLQVPSSSEPSSLKGSTSLLVHPVSGVRKEQGGGCHSDT
modifications: trans-cyclooct-2-ene-L-lysine (TCO*K) at 466, labelled with Tet-Cy3
With B2, the binding result in test [1] is reported as “binds”.
